# Hit rate of the full screen: of about 320,000 compounds, about 2,100 (0.66%) were called active. Inconclusive results, whose numbers are uncertain, are shown with a selection of clear calls. Calls follow the shape of the dose curve; as a rule, active = well fitted inhibition curve with a large enough effect in the signal ratio, with a control signal flat (not every such curve was filed as active); inconclusive = small, poorly fitted or top-dose-only effect, or effect the other way, or a change in a side signal; inactive = flat fitted curve, though single readings scatter; the % refers to the signal ratio. Where the call is inconclusive, the potency comes from a doubtful curve fit.
# Experiment: qHTS Assay for Lipid Storage Modulators in Drosophila S3 Cells
# Settings: BODIPY lipid droplet fluorescence, 18-24 h, cells fed with added oleic acid; lipid storage change, negative = inhibition: at 46.1 µM (top of the series) unless noted
# Outline: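 Drosophila S3 cells loaded with oleic acid (400 uM, as added) and compounds at several concentrations; lipid droplets imaged by 488-nm laser-scanning cytometry, 500–530 nm intensity and object ratio to cell channel. Percent activity normalized to 20 uM Triacsin C.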
# % is scaled to controls: 0 for no effect and ±100 for the full control effect; potency is read from the fitted curve at half-maximal effect.
Structure (SMILES),"lipid storage change, negative = inhibition",Potency
COc1cccc(NCc2nnc(SCC(=O)N(C)C3CCS(=O)(=O)C3)n2C2CCCCC2)c1 (configuration not stated),inconclusive: -33.4%,
Cc1sc2nc(C(C)C)nc(SCC(=O)N3c4ccccc4CC3C)c2c1C (configuration not stated),,"inconclusive: 0.92 µM [activator, full curve]"
CCC(=O)N1CCc2cc(OC)c(OC)cc2C1COc1ccc(F)cc1 (configuration not stated),,"inconclusive: 0.058 µM [activator, partial curve, poor fit]"
Cc1ccc(NC(=O)CSc2ncc(-c3ccccc3)n2C(=O)c2ccccc2)cc1,inconclusive: -30.7%,
COc1ccc(C2=NOC(Cn3nc(C(=O)NCc4ccc(C)cc4)cc3-c3ccccc3)C2)cc1 (configuration not stated),inconclusive: -55%,
O=[N+]([O-])c1cccc(S(=O)(=O)NCCc2ccccc2)c1,inactive,
CCCCNC(=O)c1c(N)n(/N=C/c2ccccn2)c2nc3ccccc3nc12,inconclusive: -8.73%,
O=C(O)Cn1c(-c2ccccn2)nc2ccccc21,inconclusive: -36.2%,
CC(C)(C)OC(=O)NCCCCCNC(=O)c1nc[nH]c1C(=O)N1CCN(C(=O)OC(C)(C)C)CC1,,"inconclusive: 0.731 µM [falling, full curve, poor fit]"
CC1(c2nnc(Cc3ccccc3)o2)CC(c2cccc(F)c2)=NO1 (configuration not stated),inconclusive: -2.57%,
CCN1CCN(Cc2ccc(NC(=O)c3cc(NC(=O)N4CCNC4=O)cc(OC)c3)cc2C(F)(F)F)CC1,inconclusive: 12.5%,
Cc1ccccc1C1CC(c2ccccc2)Nc2ncnn21 (configuration not stated),inconclusive: -11.4%,
COc1ccc(OCc2nc(-c3ccc(F)c(F)c3)cs2)cc1,,"inconclusive: 29.1 µM [cytotoxic, single point]"
COc1ccccc1Nc1nc(N)nc(CSc2nccc(C)n2)n1,,"inconclusive: 0.461 µM [activator, full curve]"
CCOC(=O)/C(=C/c1c2ccccc2cc2ccccc12)NC(=O)c1ccccc1,,"inconclusive: 18.4 µM [falling, partial curve, poor fit]"
Cc1cccc(N(CC(=O)NCC2CCCO2)C(=O)CCC(=O)Nc2nccs2)c1 (configuration not stated),inconclusive: -64.5%,
Cc1ccc(/C=N/N2CCN(C3c4ccccc4-c4ccccc43)CC2)o1,inconclusive: 9.85%,
CN(C)S(=O)(=O)c1cc(C(=O)Nc2ccn(C)n2)c(Cl)cc1Cl,,"inconclusive: 0.0046 µM [activator, full curve, poor fit]"
O=C(COC(=O)/C=C/c1ccc2c(c1)OCO2)Nc1ccccc1,inconclusive: 18.1%,
CCN(C(=O)c1ccc(Cl)cc1[N+](=O)[O-])c1ccccc1C,inconclusive: -4.99%,
S=C(NCc1ccco1)N/N=C/c1ccccc1Cl,,"inconclusive: 18.4 µM [activator, single point]"
COc1cc(NS(=O)(=O)c2ccc(NC(=O)NC3CCCCC3)cc2)nc(OC)n1,,"inconclusive: 0.0046 µM [falling, full curve, poor fit]"
COc1ccc(/C=C(\C#N)C(=O)NCCCn2ccnc2)cc1,inconclusive: -63.4%,
O=C(COC(=O)c1cccc2ccccc12)NCC1CCCO1 (configuration not stated),inconclusive: -16%,

# Retrieved by compound from above, 2 records:
Structure (SMILES),"lipid storage change, negative = inhibition",Potency
O=C(O)Cn1c(-c2ccccn2)nc2ccccc21,inconclusive: -36.2%,
O=[N+]([O-])c1cccc(S(=O)(=O)NCCc2ccccc2)c1,inactive,

# (listing goes on)

Structure (SMILES),"lipid storage change, negative = inhibition",Potency
CC(=O)c1ccccc1NC(=O)Cn1c(=O)cnc2ccccc21,,"inconclusive: 0.146 µM [activator, full curve, poor fit]"
CC(=O)Nc1cccc(N/C=C(\C=O)c2nc3ccccc3o2)c1,inconclusive: 1.11%,
COC(=O)C1=C(C)N(C)C(C)=C(C(=O)OC)C1c1ccccn1,,"inconclusive: 5.8 µM [falling, single point]"
Brc1ccc(-c2noc(COc3ccc4c(c3)CCC4)n2)o1,,"inconclusive: 23.1 µM [activator, partial curve]"
CC(C)(C)NC(=O)C(c1ccncc1)N(CC1CCCO1)C(=O)Cn1nnc(-c2ccc(F)cc2)n1 (configuration not stated),inconclusive: -23.7%,
COc1ccccc1NC(=O)c1ccc(-n2cccn2)c([N+](=O)[O-])c1,inconclusive: 2.37%,
O=C(/C=C/c1ccccc1[N+](=O)[O-])NCCCN1CCCC1=O,,"inconclusive: 0.0058 µM [rising, full curve, poor fit]"
NC(=O)CC(NC(=O)c1ccccc1)c1ccc(NC2CCCC2)c([N+](=O)[O-])c1 (configuration not stated),inconclusive: -34.9%,
Cc1ccc(OCc2nnc(SCC(=O)Nc3ccc4c(c3)OCCO4)n2Cc2ccco2)cc1,inconclusive: -15.1%,
O=C(c1ccc(CS(=O)Cc2ccc(Cl)cc2)o1)N1CCN(c2ccccn2)CC1 (configuration not stated),inconclusive: 126%,
CCOc1ccc(NC(=S)N(CCCN2CCOCC2)Cc2cn(C)c3ccccc23)cc1,inconclusive: 18.4%,
O=C(O)c1ccc(F)c(S(=O)(=O)Nc2ccccc2)c1,,"inconclusive: 29.1 µM [falling, single point]"
CC1=C(C(=O)OCC2CCCO2)C(c2cccc(C(F)(F)F)c2)C2=C(CC(c3ccco3)CC2=O)N1 (configuration not stated),,"inconclusive: 20.6 µM [activator, single point]"
COC(=O)c1c(NC(=O)C2CC=CCC2C(=O)O)sc2c1CCCCC2 (configuration not stated),,"inconclusive: 5.8 µM [activator, single point]"
Cc1cc(C)c2c(c1)NC(C(=O)O)C1CC=CC21 (configuration not stated),,"inconclusive: 10.3 µM [activator, partial curve]"
CC1=C(C(N)=O)C(c2ccccc2)n2nc(-c3cccs3)nc2N1 (configuration not stated),,"inconclusive: 0.58 µM [activator, full curve, poor fit]"
O=c1c2cccc(Cl)c2nc2n1Cc1ccccc1-2,inconclusive: 8.15%,
Cn1c(-c2ccc(F)cc2)cnc1SCC(=O)Nc1ccccc1,inconclusive: -10.8%,
O=C(c1ccc2ncsc2c1)N1CCN(c2nc3ccccc3s2)CC1,,"inconclusive: 0.517 µM [activator, full curve]"
O=C(Nc1ccccc1Br)C(=O)N1CCCC1,,"inconclusive: 16.4 µM [activator, single point]"
COc1cc2c(cc1OC)C(c1cccc(Br)c1)CC(=O)N2 (configuration not stated),inconclusive: -26.4%,
COc1cccc(-c2cc(C(=O)N3C(C)CCCC3C)no2)c1 (configuration not stated),inconclusive: 32.5%,
CC1=CC2=NC(=O)/C(=C\c3ccc(-c4cccc(Cl)c4)o3)C(=N)N2O1,,"inconclusive: 2.91 µM [activator, partial curve, poor fit]"

# Compounds from the list above that have a tert-butyl group (2):
Structure (SMILES),"lipid storage change, negative = inhibition",Potency
CC(C)(C)OC(=O)NCCCCCNC(=O)c1nc[nH]c1C(=O)N1CCN(C(=O)OC(C)(C)C)CC1,,"inconclusive: 0.731 µM [falling, full curve, poor fit]"
CC(C)(C)NC(=O)C(c1ccncc1)N(CC1CCCO1)C(=O)Cn1nnc(-c2ccc(F)cc2)n1 (configuration not stated),inconclusive: -23.7%,

# (list continues)

Structure (SMILES),"lipid storage change, negative = inhibition",Potency
CN(C)c1ccnc(N(Cc2ccccc2)Cc2ccccc2)c1C#N,inconclusive: 116%,
CC(C)(C)c1nc2ccccc2c(=O)n1N1C(=O)c2ccccc2C1=O,inconclusive: 8.16%,
Cc1ccc(C(=O)NCCNC(=O)COc2ccc(C)c(C)c2)cn1,,"inconclusive: 23.1 µM [activator, partial curve]"
CCOC(=O)c1ccc(NC(=O)Cn2nc(C)c3ccccc3c2=O)cc1,inconclusive: -10.2%,
CN(C(=O)COC(=O)c1cc([N+](=O)[O-])ccc1N1CCCC1)C1CCS(=O)(=O)C1 (configuration not stated),,"inconclusive: 6.51 µM [falling, single point]"
CCOc1ccc(NC(=O)c2sc3nc4n(c(=O)c3c2C)CCC4)cc1,inconclusive: 37.3%,
CCN(CC)S(=O)(=O)c1ccc2c(c1)nc(CCC(=O)OCC(=O)Nc1cc(Cl)cc(Cl)c1)n2C,,"inconclusive: 3.26 µM [activator, full curve, poor fit]"
C/C=C/C(=O)OCC(=O)Nc1ccc(SC(F)F)cc1,inconclusive: 48.8%,
Cc1ccc(NC(=O)C(C)N=C2NS(=O)(=O)c3ccccc32)cc1 (configuration not stated),inconclusive: -0.466%,
CC(C)c1onc(C(=O)N2CCN(Cc3ccccc3)CC2)c1[N+](=O)[O-],inconclusive: 1.64%,
COc1ccc(C)cc1NC(=O)CSc1nnc(CC(=O)Nc2cccc(C(F)(F)F)c2)n1C,inconclusive: 101%,
CC(=O)Nc1ccc(/C=C(\C#N)C(=O)NC2CCCCC2C)cc1 (configuration not stated),,"inconclusive: 25.9 µM [falling, partial curve, poor fit]"
COC(=O)CN1C(=O)c2cccc3cccc1c23,inconclusive: -9.4%,
Cc1nn(-c2ccccc2)c(C)c1C(=O)NCc1ccccc1F,,"inconclusive: 29.1 µM [activator, single point]"
CC12C(=O)N(c3cccc(OC(=O)c4ccco4)c3)C(=O)C1C1c3ccccc3C2c2ccccc21 (configuration not stated),inconclusive: 0.14%,
CC(=O)OC1CC2(C)/C(=N\O)CCC2C2CCc3cc(O)ccc3C12 (configuration not stated),inconclusive: -21%,
CC1(C(=O)N2CCN(c3ccc([N+](=O)[O-])cc3)CC2)CC1(Cl)Cl (configuration not stated),,"inconclusive: 8.2 µM [falling, partial curve]"
O=C1CN(C(=O)COc2ccc(F)cc2Br)c2ccccc2N1,inconclusive: -11.8%,
Cc1cc(C(=O)N2CCc3ccccc3C2)on1,inconclusive: 34.4%,
O=C(COC(=O)/C=C/c1ccc(Br)o1)Nc1ccccc1F,inconclusive: 93.3%,
COc1ccc(N2CCN(C(=O)c3ccc(C)c(NC(=O)c4ccco4)c3)CC2)cc1,inconclusive: 14.6%,
O=Cc1c[nH]c2ccc(OCc3ccccc3)cc12,,"inconclusive: 5.17 µM [activator, partial curve]"
CCC(C(=O)NC1CCN(C)CC1)c1ccccc1 (configuration not stated),,"inconclusive: 29.1 µM [activator, single point]"
